Results deposited as PubChem BioAssay AID504784 (Drosophila RNAi Screening Center, 2011)
Aim: 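Genome-wide knock-down for genes giving too much or too little stored lipid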 (primary screen). Cell system: Drosophila Kc167 embryonic cells. Knock-down reagent: long dsRNA against Drosophila genes, about 250 ng dsRNA per well. Duration: 4 days. Treatment: cells fed 400 µM oleic acid bound to BSA. Measured: 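Microscope images give a droplet-to-nucleus area ratio, taken as log and converted to a screen-wide B-score; higher values mean greater lipid storage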. Scale: droplet/nuclear area B-score: higher = more stored lipid (overstorage).
The deposit covers about 17,000 reagents; this is an unselected part of those with a known target gene and a result. 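Each column is one replicate's B-score; the combined score over replicates was not deposited, so single values may mislead.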 Names joined by + are all predicted targets of the reagent. Not all columns of the deposit are shown. Reagent sequences are not shown.

| gene knocked down | DRSC id | droplet/nuclear area B-score, replicate 1 | droplet/nuclear area B-score, replicate 2 |
| --- | --- | --- | --- |
| CG14966 | DRSC08425 | -2.23 | -0.401 |
| CG42747 | DRSC10209 | -0.289 | 0.585 |
| CG42747 | DRSC10210 | 1.7 | -0.858 |
| GstE7 | DRSC06677 | 0.138 | -0.0553 |
| CG14965 | DRSC08424 | -1.12 | -1.08 |
| ttm3 | DRSC03736 | 0.498 | -0.03 |
| Der-2 | DRSC15021 | -0.254 | -1.7 |
| CG14411 | DRSC19597 | 0.389 | 0.562 |
| CG2993 | DRSC14284 | 2.32 | 0.156 |
| CG2993 | DRSC15457 | 3.24 | -0.0454 |
| CG11353 | DRSC08182 | -0.09 | -1.28 |
| Grd | DRSC11178 | -0.602 | -0.223 |
| hry | DRSC11353 | 2.26 | -2.55 |
| hry | DRSC23249 | 0.556 | 0.788 |
| CG7208 | DRSC16212 | 0.398 | -0.022 |
| Neto | DRSC18982 | -0.114 | -1.09 |
| Neto | DRSC19503 | 0.548 | 0.329 |
| Neto | DRSC19716 | -2.02 | -2.94 |
| Neto | DRSC19717 | 0.628 | -1.14 |
| Dph2 | DRSC16222 | 0.574 | -5.9 |
| CG34235 + CG30058 + CG34312 | DRSC22142 | 0.0184 | -0.00605 |
| CG2955 | DRSC00552 | -0.877 | 1.17 |
| CG7294 | DRSC03041 | 0.124 | 3.51 |
| Hsdl2 | DRSC15839 | 1.02 | – |
| Drip | DRSC07405 | -1.54 | -0.322 |
| CG6689 | DRSC16095 | -0.00163 | 9.1 |
| Cht7 + tRNA:Cys-GCA-1-4 + tRNA:Lys-CTT-1-13 | DRSC08021 | 1.42 | 0.398 |
| dbf | DRSC02570 | 0.921 | 1.42 |
| Xe7 | DRSC12307 | 0.151 | 0.13 |
| Nnk | DRSC15274 | -1.2 | 0.923 |
| CG9953 | DRSC11106 | 1.86 | -0.306 |
| CG14275 | DRSC02379 | 0.00215 | 0.166 |
| mah | DRSC14645 | -0.222 | 0.438 |

10 entries from above in another layout:
CG14966 [DRSC08425]
- droplet/nuclear area B-score, replicate 1: -2.23
- droplet/nuclear area B-score, replicate 2: -0.401

CG42747 [DRSC10209]
- droplet/nuclear area B-score, replicate 1: -0.289
- droplet/nuclear area B-score, replicate 2: 0.585

CG42747 [DRSC10210]
- droplet/nuclear area B-score, replicate 1: 1.7
- droplet/nuclear area B-score, replicate 2: -0.858

GstE7 [DRSC06677]
- droplet/nuclear area B-score, replicate 1: 0.138
- droplet/nuclear area B-score, replicate 2: -0.0553

CG14965 [DRSC08424]
- droplet/nuclear area B-score, replicate 1: -1.12
- droplet/nuclear area B-score, replicate 2: -1.08

ttm3 [DRSC03736]
- droplet/nuclear area B-score, replicate 1: 0.498
- droplet/nuclear area B-score, replicate 2: -0.03

Der-2 [DRSC15021]
- droplet/nuclear area B-score, replicate 1: -0.254
- droplet/nuclear area B-score, replicate 2: -1.7

CG14411 [DRSC19597]
- droplet/nuclear area B-score, replicate 1: 0.389
- droplet/nuclear area B-score, replicate 2: 0.562

CG2993 [DRSC14284]
- droplet/nuclear area B-score, replicate 1: 2.32
- droplet/nuclear area B-score, replicate 2: 0.156

CG2993 [DRSC15457]
- droplet/nuclear area B-score, replicate 1: 3.24
- droplet/nuclear area B-score, replicate 2: -0.0454

More reagents follow:
| gene knocked down | DRSC id | droplet/nuclear area B-score, replicate 1 | droplet/nuclear area B-score, replicate 2 |
| --- | --- | --- | --- |
| CG4836 | DRSC15659 | 0.0853 | 0.392 |
| CG5781 | DRSC02893 | 1.04 | 1.13 |
| CG12620 | DRSC02177 | -1.35 | -1.32 |
| Cog7 | DRSC16331 | -0.0122 | -1.47 |
| Ube4A | DRSC02004 | -0.275 | -2.12 |
| pip | DRSC11382 | 0.187 | -0.245 |
| COX6B | DRSC19590 | 5.04 | -0.285 |
| hec | DRSC19895 | 0.0453 | -0.752 |
| Ntmt | DRSC06624 | 1.56 | -0.16 |
| MESK2 | DRSC04258 | 0.954 | 0.862 |
| nur | DRSC01342 | 1.03 | -1.06 |
| pck | DRSC18565 | -0.536 | 0.334 |
| CG32104 | DRSC10127 | -0.22 | -1.04 |
| CG32104 | DRSC10128 | -0.478 | -0.0143 |
| CG30384 | DRSC06032 | -0.898 | -0.659 |
| Hsp68 | DRSC16712 | -0.116 | -0.567 |
| CG1598 | DRSC06598 | -1.9 | 0.727 |
| MFS1 | DRSC04115 | -0.106 | 0.854 |
| fal | DRSC11087 | -0.638 | 0.491 |
| CG16890 | DRSC01890 | 1.68 | -0.00873 |
| CG33093 | DRSC15775 | -0.371 | -0.441 |
| Pde11 | DRSC02028 | -0.00721 | 0.417 |
| Pde11 | DRSC02460 | 0.0792 | -1.87 |
| Vps53 | DRSC00595 | 0.312 | -0.298 |
| X11Lbeta | DRSC18156 | 1.08 | 0.0634 |
| X11Lbeta | DRSC18158 | -0.328 | -1.7 |
| CG14763 | DRSC06497 | -0.365 | -0.47 |
| CG13074 | DRSC09957 | 0.00718 | -0.865 |
| wun2 | DRSC07566 | -0.058 | 1.57 |
| cathD | DRSC07588 | -0.0442 | 0.6 |
| tadr | DRSC03177 | 0.745 | -0.00793 |
| Ir21a | DRSC00528 | 1.09 | -1.22 |
| CG5023 | DRSC15697 | 0.377 | 0.82 |
| CG9759 | DRSC16558 | -0.0771 | -0.00318 |
| l(2)37Bb | DRSC02088 | 1.46 | -1.15 |
| CG14957 | DRSC08416 | -0.475 | -0.332 |
| Trf2 | DRSC18727 | -1.13 | -0.289 |
| Hira | DRSC18672 | 0.464 | 1.61 |
| PIP82 | DRSC18694 | 0.908 | 0.0332 |
| DNAlig4 | DRSC19436 | 0.744 | 0.554 |
| CG1999 | DRSC18199 | 0.874 | 0.553 |
| CG6607 | DRSC16073 | -1.53 | -0.875 |
| Dtwd2 + Obp84a | DRSC12603 | 0.275 | -0.991 |
| CG40006 | DRSC03787 | -2.22 | -0.67 |
| CG40006 | DRSC03809 | -0.386 | 0.0759 |
| CG40006 | DRSC03814 | -0.0286 | -0.806 |
| CG40006 | DRSC03817 | 0.894 | -1.98 |
| CG30197 | DRSC22394 | 1.43 | 1.2 |
| kst | DRSC08719 | -1.78 | -2.13 |
| mGluR | DRSC17215 | -2.65 | 1.01 |
